Experimental data taken from article PMC12858401.
No constants are given. Whether binding was seen depends on the method and setting. In cells and extracts the contact can be indirect. Some binding calls cover weakened binding; strength is not graded here.

By UniProt entry, the sequences of proteins in these tests, tags left out.
UniProt P62330: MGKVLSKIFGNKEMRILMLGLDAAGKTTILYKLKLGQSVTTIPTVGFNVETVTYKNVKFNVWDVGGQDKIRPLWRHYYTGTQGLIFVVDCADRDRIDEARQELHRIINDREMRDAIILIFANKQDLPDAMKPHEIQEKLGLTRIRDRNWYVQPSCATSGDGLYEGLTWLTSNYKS

Experiments:
[1] = target: Endogenous epidermal growth factor receptor (EGFR) (human (endogenous in A549)) (UniProt P00533); assay: proximity ligation; Duolink flowPLA read by flow cytometry; fixed, permeabilized A549 cells, serum-starved, with or without EGF
[2] = target: Endogenous epidermal growth factor receptor (EGFR) (human (endogenous in A549)) (UniProt P00533); assay: proximity ligation; Duolink in situ PLA read by confocal imaging; fixed, permeabilized nonengineered WT A549 cells, serum-starved, with or without EGF (5 min); PLA foci per cell

ARF6, an ADP-ribosylation factor (from UniProt P62330 1-175)
binding [1]: binds

Protein tyrosine phosphatase transmembrane receptor (PTPRF) (from UniProt P10586 30-1907)
binding [1]: binds
binding [2]: binds

β-catenin (from UniProt P35222 1-781)
binding [1]: binds

B1: DNM1 (protein, UniProt Q05193 1-864)
chain: MGNRGMEDLIPLVNRLQDAFSAIGQNADLDLPQIAVVGGQSAGKSSVLENFVGRDFLPRGSGIVTRRPLVLQLVNATTEYAEFLHCKGKKFTDFEEVRLEIEAETDRVTGTNKGISPVPINLRVYSPHVLNLTLVDLPGMTKVPVGDQPPDIEFQIRDMLMQFVTKENCLILAVSPANSDLANSDALKVAKEVDPQGQRTIGVITKLDLMDEGTDARDVLENKLLPLRRGYIGVVNRSQKDIDGKKDITAALAAERKFFLSHPSYRHLADRMGTPYLQKVLNQQLTNHIRDTLPGLRNKLQSQLLSIEKEVEEYKNFRPDDPARKTKALLQMVQQFAVDFEKRIEGSGDQIDTYELSGGARINRIFHERFPFELVKMEFDEKELRREISYAIKNIHGIRTGLFTPDMAFETIVKKQVKKIREPCLKCVDMVISELISTVRQCTKKLQQYPRLREEMERIVTTHIREREGRTKEQVMLLIDIELAYMNTNHEDFIGFANAQQRSNQMNKKKTSGNQDEILVIRKGWLTINNIGIMKGGSKEYWFVLTAENLSWYKDDEEKEKKYMLSVDNLKLRDVEKGFMSSKHIFALFNTEQRNVYKDYRQLELACETQEEVDSWKASFLRAGVYPERVGDKEKASETEENGSDSFMHSMDPQLERQVETIRNLVDSYMAIVNKTVRDLMPKTIMHLMINNTKEFIFSELLANLYSCGDQNTLMEESAEQAQRRDEMLRMYHALKEALSIIGDINTTTVSTPMPPPVDDSWLQVQSVPAGRRSPTSSPTPQRRAPAVPPARPGSRGPAPGPPPAGSALGGAPPVPSRPGASPDPFGPPPQVPSRPNRAPPGVPSRSGQASPSRPESPRPPFDL
binding [1]: binds
